Record: PubChem BioAssay AID1224828 (NIAID, 2016)
This is one part, drawn at random, of about 17,000 reagents tested. Of all reagents, 762 (4.5%) were called active. 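Active calls include both raised and lowered p65 entry, mostly lowered; wells with fewer than 50 cells lack a z-score.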 Raw values vary from plate to plate and are shown uncorrected. A number with no mark means an inactive call.

Test: 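Regulators linking TLR4 signalling to p65 nuclear translocation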 (primary screen)
System: mouse RAW264.7 G9 macrophage reporter cells (GFP-p65, Tnf promoter-mCherry)
Knock-down reagent: siRNA pool against mouse genes, 100 nM
Time to read-out: 2 days siRNA transfection, then 40 min LPS before fixation
Conditions: LPS (Salmonella minnesota R595) at 10 ng/ml
Read-out: 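Imaged p65 nuclear translocation ratio, normalised to the plate median, converted to robust z-scores and averaged across two replicates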
Direction: p65 translocation robust z-score: higher = more nuclear NF-kappaB p65 after LPS than the plate median; nuclear/cytoplasmic p65 ratio: higher = more nuclear NF-kappaB p65
Hit rule: 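Active if robust z is above 3.3 (negative regulators) or below -1.56, the Tlr4 control median (positive regulators); activity score 50 or more; control wells not called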
Calls: active = hit (p65 shift raised or lowered); inactive = no clear change

Silencing of Snap91 (GeneID 20616) resulted in: nuclear/cytoplasmic p65 ratio, rep 1 = 1.55; nuclear/cytoplasmic p65 ratio, rep 2 = 1.22; low cell count flag fewer than 50 cells per well; well left out of scoring. For Tefm (GeneID 68550), the values are p65 translocation robust z-score -2.2 (active); nuclear/cytoplasmic p65 ratio, rep 1 = 1.24; nuclear/cytoplasmic p65 ratio, rep 2 = 1.14; low cell count flag enough cells to score. After knock-down of Arl10 (GeneID 56795) the results were p65 translocation robust z-score 0.87; nuclear/cytoplasmic p65 ratio, rep 1 = 1.56; nuclear/cytoplasmic p65 ratio, rep 2 = 1.8; low cell count flag enough cells to score. Against Or2d36 (GeneID 258597), the values are nuclear/cytoplasmic p65 ratio, rep 1 = 1.3; nuclear/cytoplasmic p65 ratio, rep 2 = 1.24; low cell count flag fewer than 50 cells per well; well left out of scoring. For Ep300 (GeneID 328572), the entry reads p65 translocation robust z-score -2.11 (active); nuclear/cytoplasmic p65 ratio, rep 1 = 1.46; nuclear/cytoplasmic p65 ratio, rep 2 = 1.09; low cell count flag enough cells to score. For Drc8 (GeneID 68226), the values are nuclear/cytoplasmic p65 ratio, rep 1 = 1.38; nuclear/cytoplasmic p65 ratio, rep 2 = 1.2; low cell count flag fewer than 50 cells per well; well left out of scoring.

Knock-down of Vamp8 (GeneID 22320) gave: p65 translocation robust z-score -0.24; nuclear/cytoplasmic p65 ratio, rep 1 = 1.5; nuclear/cytoplasmic p65 ratio, rep 2 = 1.29; low cell count flag enough cells to score. Depletion of Pnpla6 (GeneID 50767) resulted in: p65 translocation robust z-score 1.72; nuclear/cytoplasmic p65 ratio, rep 1 = 1.93; nuclear/cytoplasmic p65 ratio, rep 2 = 1.82; low cell count flag enough cells to score. Vapa (GeneID 30960) scored p65 translocation robust z-score -0.14; nuclear/cytoplasmic p65 ratio, rep 1 = 1.46; nuclear/cytoplasmic p65 ratio, rep 2 = 1.21; low cell count flag enough cells to score. With knock-down of Gnpda1 (GeneID 26384) the results were p65 translocation robust z-score 0.01; nuclear/cytoplasmic p65 ratio, rep 1 = 1.39; nuclear/cytoplasmic p65 ratio, rep 2 = 1.43; low cell count flag enough cells to score. Knock-down of Lgr5 (GeneID 14160) resulted in: p65 translocation robust z-score -0.54; nuclear/cytoplasmic p65 ratio, rep 1 = 1.43; nuclear/cytoplasmic p65 ratio, rep 2 = 1.5; low cell count flag enough cells to score. With knock-down of Mmgt2 (GeneID 216829), the screen gave p65 translocation robust z-score -0.01; nuclear/cytoplasmic p65 ratio, rep 1 = 1.59; nuclear/cytoplasmic p65 ratio, rep 2 = 1.83; low cell count flag enough cells to score.

Knock-down of Slc5a1 (GeneID 20537) resulted in: p65 translocation robust z-score 0.84; nuclear/cytoplasmic p65 ratio, rep 1 = 1.58; nuclear/cytoplasmic p65 ratio, rep 2 = 1.69; low cell count flag enough cells to score. Silencing of Chfr (GeneID 231600) came out at: p65 translocation robust z-score 0.07; nuclear/cytoplasmic p65 ratio, rep 1 = 1.42; nuclear/cytoplasmic p65 ratio, rep 2 = 1.43; low cell count flag enough cells to score. Slco2a1 (GeneID 24059) showed nuclear/cytoplasmic p65 ratio, rep 1 = 1.69; nuclear/cytoplasmic p65 ratio, rep 2 = 1.24; low cell count flag fewer than 50 cells per well; well left out of scoring. Depletion of Hmgxb3 (GeneID 106894) resulted in: p65 translocation robust z-score -2.02 (active); nuclear/cytoplasmic p65 ratio, rep 1 = 1.19; nuclear/cytoplasmic p65 ratio, rep 2 = 1.25; low cell count flag enough cells to score. After knock-down of Tnmd (GeneID 64103), the screen gave nuclear/cytoplasmic p65 ratio, rep 1 = 2.2; nuclear/cytoplasmic p65 ratio, rep 2 = 1.43; low cell count flag fewer than 50 cells per well; well left out of scoring. After knock-down of Abcc1 (GeneID 17250), the screen gave p65 translocation robust z-score -0.12; nuclear/cytoplasmic p65 ratio, rep 1 = 1.59; nuclear/cytoplasmic p65 ratio, rep 2 = 1.6; low cell count flag enough cells to score.

Depletion of Atp6v1h (GeneID 108664) came out at: p65 translocation robust z-score -0.25; nuclear/cytoplasmic p65 ratio, rep 1 = 1.56; nuclear/cytoplasmic p65 ratio, rep 2 = 1.59; low cell count flag enough cells to score. For Srl (GeneID 106393) the deposit lists p65 translocation robust z-score 0.74; nuclear/cytoplasmic p65 ratio, rep 1 = 1.39; nuclear/cytoplasmic p65 ratio, rep 2 = 1.65; low cell count flag enough cells to score. Gdf5 (GeneID 14563) gave p65 translocation robust z-score 0.13; nuclear/cytoplasmic p65 ratio, rep 1 = 1.43; nuclear/cytoplasmic p65 ratio, rep 2 = 1.41; low cell count flag enough cells to score.

3 consecutive reagents already listed, quoted:
Ep300 (GeneID 328572) — p65 translocation robust z-score: -2.11 (active); nuclear/cytoplasmic p65 ratio, rep 1: 1.46; nuclear/cytoplasmic p65 ratio, rep 2: 1.09; low cell count flag: enough cells to score
Drc8 (GeneID 68226) — nuclear/cytoplasmic p65 ratio, rep 1: 1.38; nuclear/cytoplasmic p65 ratio, rep 2: 1.2; low cell count flag: fewer than 50 cells per well; well left out of scoring
Vamp8 (GeneID 22320) — p65 translocation robust z-score: -0.24; nuclear/cytoplasmic p65 ratio, rep 1: 1.5; nuclear/cytoplasmic p65 ratio, rep 2: 1.29; low cell count flag: enough cells to score
